The text below walks through data of paper PMC8514473.

By UniProt entry, the sequences of proteins in these tests, tags left out.
UniProt F4K5J1: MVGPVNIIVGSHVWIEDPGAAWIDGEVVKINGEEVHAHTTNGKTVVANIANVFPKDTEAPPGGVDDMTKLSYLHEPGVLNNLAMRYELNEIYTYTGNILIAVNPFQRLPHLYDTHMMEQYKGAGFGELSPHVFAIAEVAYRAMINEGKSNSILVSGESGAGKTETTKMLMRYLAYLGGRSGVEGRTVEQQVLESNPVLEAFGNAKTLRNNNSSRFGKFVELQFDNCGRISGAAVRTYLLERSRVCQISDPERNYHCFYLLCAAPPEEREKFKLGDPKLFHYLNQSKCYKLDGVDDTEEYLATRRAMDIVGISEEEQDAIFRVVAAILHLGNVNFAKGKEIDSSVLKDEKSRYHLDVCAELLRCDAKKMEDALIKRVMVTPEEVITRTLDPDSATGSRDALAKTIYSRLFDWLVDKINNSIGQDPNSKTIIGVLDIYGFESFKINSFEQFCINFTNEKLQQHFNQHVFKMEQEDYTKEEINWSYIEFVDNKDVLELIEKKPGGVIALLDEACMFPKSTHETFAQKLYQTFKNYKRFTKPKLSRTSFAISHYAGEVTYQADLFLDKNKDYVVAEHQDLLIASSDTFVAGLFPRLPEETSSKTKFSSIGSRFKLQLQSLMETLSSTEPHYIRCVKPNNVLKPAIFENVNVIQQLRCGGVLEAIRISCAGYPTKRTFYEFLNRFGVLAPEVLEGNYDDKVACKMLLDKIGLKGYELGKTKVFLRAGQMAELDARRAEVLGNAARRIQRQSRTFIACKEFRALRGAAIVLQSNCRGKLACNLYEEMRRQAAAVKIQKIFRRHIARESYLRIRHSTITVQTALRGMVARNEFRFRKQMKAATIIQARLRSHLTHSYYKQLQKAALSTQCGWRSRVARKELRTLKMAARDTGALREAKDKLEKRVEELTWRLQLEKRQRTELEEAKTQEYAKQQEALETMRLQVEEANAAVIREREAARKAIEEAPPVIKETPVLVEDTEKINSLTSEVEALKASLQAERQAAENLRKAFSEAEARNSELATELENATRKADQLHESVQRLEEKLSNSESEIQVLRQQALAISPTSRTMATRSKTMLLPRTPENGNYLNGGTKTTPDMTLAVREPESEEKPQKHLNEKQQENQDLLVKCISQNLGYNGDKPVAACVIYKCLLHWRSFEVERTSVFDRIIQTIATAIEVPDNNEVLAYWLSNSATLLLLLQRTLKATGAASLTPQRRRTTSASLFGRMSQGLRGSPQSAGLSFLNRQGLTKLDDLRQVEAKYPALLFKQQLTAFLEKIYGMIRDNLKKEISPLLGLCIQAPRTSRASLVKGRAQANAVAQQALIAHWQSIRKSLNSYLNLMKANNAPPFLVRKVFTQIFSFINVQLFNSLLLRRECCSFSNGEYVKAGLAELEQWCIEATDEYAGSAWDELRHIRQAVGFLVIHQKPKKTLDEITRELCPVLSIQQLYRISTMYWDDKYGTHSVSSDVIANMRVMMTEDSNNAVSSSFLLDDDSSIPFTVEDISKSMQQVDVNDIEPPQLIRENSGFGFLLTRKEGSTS
UniProt Q39160: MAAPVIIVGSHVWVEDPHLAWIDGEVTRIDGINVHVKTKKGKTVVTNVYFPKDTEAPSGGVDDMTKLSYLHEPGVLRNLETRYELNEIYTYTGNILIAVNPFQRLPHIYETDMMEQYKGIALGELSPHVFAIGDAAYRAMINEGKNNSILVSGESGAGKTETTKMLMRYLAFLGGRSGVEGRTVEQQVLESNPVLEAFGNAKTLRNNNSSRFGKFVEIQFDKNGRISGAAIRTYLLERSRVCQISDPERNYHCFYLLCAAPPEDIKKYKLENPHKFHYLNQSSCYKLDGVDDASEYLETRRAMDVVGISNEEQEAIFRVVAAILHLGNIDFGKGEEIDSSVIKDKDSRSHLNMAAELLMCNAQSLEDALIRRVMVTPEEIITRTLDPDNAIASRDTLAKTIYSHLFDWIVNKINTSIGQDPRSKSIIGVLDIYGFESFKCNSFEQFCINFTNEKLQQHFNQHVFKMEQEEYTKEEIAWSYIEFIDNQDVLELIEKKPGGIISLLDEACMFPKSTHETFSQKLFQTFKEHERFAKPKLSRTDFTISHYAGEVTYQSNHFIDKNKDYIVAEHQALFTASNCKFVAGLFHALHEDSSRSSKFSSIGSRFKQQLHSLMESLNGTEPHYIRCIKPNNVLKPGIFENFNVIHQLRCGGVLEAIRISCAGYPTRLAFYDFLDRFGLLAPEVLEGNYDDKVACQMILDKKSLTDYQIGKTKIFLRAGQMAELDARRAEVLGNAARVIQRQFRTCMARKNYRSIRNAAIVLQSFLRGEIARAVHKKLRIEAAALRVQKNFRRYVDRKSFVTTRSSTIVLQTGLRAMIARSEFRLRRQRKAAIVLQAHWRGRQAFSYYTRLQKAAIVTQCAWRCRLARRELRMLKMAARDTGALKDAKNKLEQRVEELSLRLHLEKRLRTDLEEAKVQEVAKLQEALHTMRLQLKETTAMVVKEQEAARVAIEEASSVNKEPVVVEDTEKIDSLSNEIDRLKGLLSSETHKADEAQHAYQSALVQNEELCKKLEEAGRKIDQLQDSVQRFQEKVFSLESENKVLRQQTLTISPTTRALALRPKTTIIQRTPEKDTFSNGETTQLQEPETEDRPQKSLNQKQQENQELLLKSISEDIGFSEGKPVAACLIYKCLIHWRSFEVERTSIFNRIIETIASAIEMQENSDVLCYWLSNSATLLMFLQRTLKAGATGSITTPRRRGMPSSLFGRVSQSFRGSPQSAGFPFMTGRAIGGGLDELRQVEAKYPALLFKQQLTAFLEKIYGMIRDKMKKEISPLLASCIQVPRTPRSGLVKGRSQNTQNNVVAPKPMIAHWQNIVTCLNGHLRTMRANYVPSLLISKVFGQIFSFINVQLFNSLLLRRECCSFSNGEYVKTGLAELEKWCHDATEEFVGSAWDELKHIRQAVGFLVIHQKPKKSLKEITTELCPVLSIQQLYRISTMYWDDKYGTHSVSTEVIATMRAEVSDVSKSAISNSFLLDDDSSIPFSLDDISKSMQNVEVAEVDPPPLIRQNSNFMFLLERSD

The experiment addresses GFP-MRF7 (Myosin Recruitment Factor 7), stable A. thaliana line (A. thaliana). The experiment in a line: affinity purification with mass spectrometry; GFP-Trap_A beads (Chromotek) on total protein extracts of two-week-old A. thaliana seedlings (wild type, GFP-MRF7, GFP-ΔMRF7); LC-MS of the whole sample; hits with #PSM higher than 5 kept.

No constants are given. Whether binding was seen depends on the method and setting. Binding seen in cells or lysates may run through a third protein. A yes stands for co-enrichment or nearness to the bait. Other partners may have been found. A no says only that the protein was not detected with the bait.

As to “Myosin XI-K (endogenous) (from UniProt F4K5J1 1-1531)”, the binding result is “binds”.

“Myosin XI-1 (endogenous) (from UniProt Q39160 1-1520)”: the binding entry is given as “no binding”.
